Measured values as given in the supplement of paper PMC6078165.
± gives the standard deviation of the averaged measurements. Values are relative to the signal before dosing, not to a vehicle control; the signal also falls without drug.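 The cancer cells are triple-negative breast cancer lines of basal-like or mesenchymal-like type, grown without fibroblasts. A drop in red signal reflects loss of mitochondrial integrity, a stand-in for apoptotic death.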

Experiments:
[1] = tested on: HCC1143; experiment: relative JC-1 red fluorescence (viability) vs pre-drug, monoculture (fraction); higher = more viable cancer cells; settings: coculture fibroblast: none (monoculture)
Protocol: (§1)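 JC-1 labelled TNBC cells grown in monoculture (density kept equal with unlabelled cancer cells) in 384-well plates in FluoroBrite medium, treated with one of 42 anticancer drugs at 0.1, 1, 10 or 100 uM. JC-1 red fluorescence (mitochondrial integrity, surrogate of apoptotic death) was read by plate reader every 8 h for 72 h. Values are normalised to each well's pre-drug value, with background from alamethicin. The stock of one drug was tenfold lower, so its dose labels may be too high. Monoculture values are repeated alongside each fibroblast plate and are averaged here.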

[2] = tested on: Hs578T; experiment: as above; settings: coculture fibroblast: none (monoculture)
Protocol: as §1

CO[C@@]12[C@H](COC(N)=O)C3=C(C(=O)C(C)=C(N)C3=O)N1C[C@@H]1N[C@@H]12 [Mitomycin C]
relative JC-1 red fluorescence
Settings | 8 h | 16 h | 24 h | 32 h | 40 h | 48 h | 56 h | 64 h | 72 h
[1], 0.1 µM | 0.8842 ± 0.0061 | 0.8032 ± 0.0066 | 0.73 ± 0.013 | 0.686 ± 0.016 | 0.625 ± 0.018 | 0.587 ± 0.024 | 0.567 ± 0.016 | 0.547 ± 0.018 | 0.532 ± 0.021
[1], 1 µM | 0.842 ± 0.018 | 0.7411 ± 0.0044 | 0.678 ± 0.0081 | 0.642 ± 0.014 | 0.592 ± 0.02 | 0.553 ± 0.029 | 0.531 ± 0.039 | 0.515 ± 0.043 | 0.499 ± 0.044
[1], 10 µM | 0.864 ± 0.0014 | 0.7742 ± 0.0069 | 0.705 ± 0.014 | 0.648 ± 0.013 | 0.594 ± 0.015 | 0.54582 ± 5.4e-05 | 0.513 ± 0.0086 | 0.488 ± 0.018 | 0.476 ± 0.028
[1], 100 µM | 0.607 ± 0.02 | 0.48 ± 0.043 | 0.421 ± 0.054 | 0.382 ± 0.069 | 0.361 ± 0.073 | 0.366 ± 0.075 | 0.362 ± 0.076 | 0.369 ± 0.08 | 0.377 ± 0.084
[2], 0.1 µM | 0.8288 ± 0.0059 | 0.728 ± 0.021 | 0.694 ± 0.015 | 0.648 ± 0.029 | 0.604 ± 0.041 | 0.597 ± 0.055 | 0.577 ± 0.063 | 0.583 ± 0.078 | 0.584 ± 0.079
[2], 1 µM | 0.809 ± 0.043 | 0.6783 ± 0.0026 | 0.65 ± 0.012 | 0.567 ± 0.017 | 0.519 ± 0.023 | 0.497 ± 0.031 | 0.479 ± 0.039 | 0.481 ± 0.045 | 0.477 ± 0.044
[2], 10 µM | 0.836 ± 0.028 | 0.75 ± 0.059 | 0.668 ± 0.083 | 0.598 ± 0.068 | 0.543 ± 0.064 | 0.497 ± 0.046 | 0.475 ± 0.032 | 0.464 ± 0.024 | 0.45 ± 0.018
[2], 100 µM | 0.6564 ± 0.0053 | 0.58 ± 0.062 | 0.664 ± 0.1 | 0.566 ± 0.087 | 0.548 ± 0.086 | 0.548 ± 0.086 | 0.548 ± 0.087 | 0.571 ± 0.094 | 0.574 ± 0.092

O=C(CCCCCCC(=O)Nc1ccccc1)NO [Vorinostat]
relative JC-1 red fluorescence
Settings | 8 h | 16 h | 24 h | 32 h | 40 h | 48 h | 56 h | 64 h | 72 h
[1], 0.1 µM | 0.9035 ± 0.0065 | 0.7904 ± 0.0078 | 0.755 ± 0.031 | 0.706 ± 0.038 | 0.678 ± 0.048 | 0.652 ± 0.069 | 0.638 ± 0.082 | 0.632 ± 0.098 | 0.627 ± 0.1
[1], 1 µM | 0.8486 ± 0.003 | 0.768 ± 0.006 | 0.684 ± 0.023 | 0.621 ± 0.018 | 0.56 ± 0.027 | 0.521 ± 0.029 | 0.493 ± 0.037 | 0.47 ± 0.039 | 0.463 ± 0.04
[1], 10 µM | 0.871 ± 0.014 | 0.781 ± 0.022 | 0.67 ± 0.023 | 0.616 ± 0.034 | 0.561 ± 0.047 | 0.539 ± 0.064 | 0.521 ± 0.068 | 0.514 ± 0.08 | 0.506 ± 0.083
[1], 100 µM | 0.8935 ± 0.0061 | 0.766 ± 0.0059 | 0.663 ± 0.011 | 0.571 ± 0.018 | 0.506 ± 0.0069 | 0.4788 ± 0.0013 | 0.455 ± 0.0051 | 0.447 ± 0.0083 | 0.444 ± 0.011
[2], 0.1 µM | 0.849 ± 0.025 | 0.728 ± 0.043 | 0.718 ± 0.012 | 0.66 ± 0.0082 | 0.657 ± 0.015 | 0.659 ± 0.031 | 0.649 ± 0.042 | 0.661 ± 0.054 | 0.662 ± 0.054
[2], 1 µM | 0.8368 ± 0.0014 | 0.743 ± 0.025 | 0.636 ± 0.032 | 0.561 ± 0.0086 | 0.511 ± 0.029 | 0.498 ± 0.04 | 0.47 ± 0.048 | 0.473 ± 0.051 | 0.479 ± 0.063
[2], 10 µM | 0.8321 ± 0.0013 | 0.7044 ± 0.0059 | 0.591 ± 0.031 | 0.499 ± 0.032 | 0.441 ± 0.049 | 0.416 ± 0.057 | 0.388 ± 0.062 | 0.392 ± 0.071 | 0.385 ± 0.073
[2], 100 µM | 0.8677 ± 0.0073 | 0.7366 ± 0.0068 | 0.66 ± 0.054 | 0.561 ± 0.055 | 0.52 ± 0.078 | 0.505 ± 0.1 | 0.488 ± 0.1 | 0.504 ± 0.11 | 0.508 ± 0.12
